Counter-ions that a name gives are not always drawn. ± gives the uncertainty stated by the source. The list shows a part of the results. Part of the spread comes from offsets between plates or batches.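 A heat-shock-induced fluorescent stripe was set in larval rod outer segments at 6 dpf. Shedding distance ran from stripe to outer segment tip, measured by confocal stacks in about three fish per compound. Controls: 0.2% DMSO vehicle. Flagged compounds showed ≥20% change from same-week control, p < 0.001 (Dunnett test on mixed-effects models).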
What was measured:
[1] = tested on: Danio rerio larva rod photoreceptor outer segment; assay: rod outer segment growth distance Dg, difference from same-week DMSO control mean; higher = more outer segment growth; conditions: 20 µM; treatment time: 4 days (6-10 dpf)
[2] = tested on: Danio rerio larva rod photoreceptor outer segment; assay: rod outer segment shedding distance Ds, difference from same-week DMSO control mean; higher = less outer segment shedding; conditions: 20 µM; treatment time: 4 days (6-10 dpf)

SMILES	rod outer segment growth distance Dg [1]	rod outer segment shedding distance Ds [2]
CN1[C@@H]2CC(O)C[C@H]1[C@@H]1O[C@@H]12 (stereo partly specified) [Scopine]	0.08 ± 0.25 um	-0.6 ± 0.16 um
C[C@]12CC[C@H]3[C@@H](CC[C@@]45O[C@@H]4C(O)=C(C#N)C[C@]35C)[C@@H]1CC[C@@H]2O [Trilostane]	0.07 ± 0.15 um	0.37 ± 0.2 um
COC1=C[C@@H]2[C@@H]3Cc4ccc(OC)c(O)c4[C@]2(CCN3C)CC1=O [Sinomenine]	0.22 ± 0.24 um	0.87 ± 0.27 um
O=[N+]([O-])c1ncc[nH]1 [Azomycin]	0.49 ± 0.23 um	0.42 ± 0.37 um
CN(C)Cc1c[nH]c2ccccc12 [Gramine]	0.68 ± 0.27 um	0.55 ± 0.28 um
Cc1c(N)nc(C(CC(N)=O)NCC(N)C(N)=O)nc1C(=O)NC(C(=O)NC(C)C(O)C(C)C(=O)NC(C(=O)NCCc1nc(-c2nc(C(=O)NCCC[S+](C)C)cs2)cs1)C(C)O)C(O[C@@H]1O[C@@H](CO)[C@@H](O)[C@H](O)[C@@H]1O[C@H]1O[C@H](CO)[C@@H](O)[C@H](OC(N)=O)[C@@H]1O)c1cnc[nH]1 (stereo partly specified) [Bleomycin Sulfate]	0.15 ± 0.19 um	-0.64 ± 0.2 um
CC(=O)O[C@H]1C[C@@H]2CC[C@@H]3[C@H](CC[C@@]4(C)[C@H]3C[C@H]([N+]3(C)CCCCC3)[C@@H]4OC(C)=O)[C@@]2(C)C[C@@H]1[N+]1(C)CCCCC1 [Pancuronium dibromide]	-0.09 ± 0.2 um	0.2 ± 0.26 um
CC(NC(C)(C)C)C(=O)c1cccc(Cl)c1 (stereo unspecified) [Amfebutamone HCl]	-0.96 ± 0.23 um	0.32 ± 0.27 um
N.N.[Cl][Pt][Cl] [Cisplatin]	-0.47 ± 0.17 um	-0.03 ± 0.18 um
CNCC(O)c1ccc(O)cc1 (stereo unspecified) [Synephrine]	0.17 ± 0.21 um	-0.36 ± 0.34 um
CC(C)N(CCNC(=O)CN1CCCC1=O)C(C)C [Pramiracetam]	0.06 ± 0.23 um	-0.85 ± 0.15 um
COc1ccc(C(=O)N2CCCC2=O)cc1 [Aniracetam]	-0.38 ± 0.14 um	-0.31 ± 0.18 um
O=C(O)CNC(=O)c1c(O)c2ccccc2n(Cc2ccccc2)c1=O	-1.11 ± 0.17 um	-0.18 ± 0.12 um
O=S(=O)(F)Cc1ccccc1	-0.2 ± 0.15 um	0.71 ± 0.15 um
CC[C@@H](C(N)=O)N1CCCC1=O [Levetiracetam]	0.46 ± 0.31 um	0.3 ± 0.19 um
CCCN1CCO[C@@H]2c3cc(O)ccc3OC[C@H]21	-0.22 ± 0.27 um	-0.78 ± 0.3 um
CN1C(=O)CCS(=O)(=O)C1c1ccc(Cl)cc1 (stereo unspecified) [Chlormezanone]	-0.32 ± 0.26 um	-1.35 ± 0.32 um

SMILES	rod outer segment growth distance Dg [1]	rod outer segment shedding distance Ds [2]
CCN(CC)C(=O)c1ccc(C2=CC3(CCNCC3)Oc3cccc(O)c32)cc1	-1.58 ± 0.15 um	-0.22 ± 0.18 um
O=P1(N(CCCl)CCCl)NCCCO1 (stereo unspecified) [Cyclophosphamide]	-0.09 ± 0.21 um	-0.48 ± 0.23 um
CN1CCC(c2c[nH]c3ccc(O)cc23)CC1	0.79 ± 0.17 um	-0.58 ± 0.13 um
C=C1C[C@@H]2[C@H](CC[C@]3(C)C(=O)CC[C@@H]23)[C@@]2(C)C=CC(=O)C=C12 [Exemestane]	-1.24 ± 0.19 um	-1.86 ± 0.27 um
C[C@@H]1CC[C@H]2[C@@H](C)C(=O)O[C@@H]3O[C@@]4(C)CC[C@@H]1[C@]32OO4 [Artemisinin]	-0.65 ± 0.15 um	-0.08 ± 0.19 um
O=C(NCC1CCOCC1)c1cnc(Nc2ccc(Cl)cc2Cl)nc1C(F)(F)F	0.52 ± 0.15 um	0.02 ± 0.13 um
O=C(O)c1nn(Cc2ccc(Cl)cc2Cl)c2ccccc12 [Lonidamine]	-0.5 ± 0.22 um	-0.58 ± 0.15 um
C[N+]1(C)[C@@H]2C[C@@H](OC(=O)[C@H](CO)c3ccccc3)C[C@H]1[C@@H]1O[C@@H]12 [Methscopolamine]	0.48 ± 0.28 um	0.38 ± 0.22 um
C[C@@]12N[C@@H](Cc3ccccc31)c1ccccc12 [(-)-MK 801 Maleate]	-2.24 ± 0.29 um	-0.87 ± 0.17 um
CN(C)C(=O)Oc1ccc[n+](C)c1 [Pyridostigmine Bromide]	1.17 ± 0.15 um	0.12 ± 0.12 um
CC(O)(CS(=O)(=O)c1ccc(F)cc1)C(=O)Nc1ccc(C#N)c(C(F)(F)F)c1 (stereo unspecified) [Bicalutamide]	-0.38 ± 0.16 um	-1.53 ± 0.25 um
COc1ccc(C(CN(C)C)C2(O)CCCCC2)cc1 (stereo unspecified) [Venlafaxine]	0.42 ± 0.17 um	-0.42 ± 0.2 um
C[C@]12N[C@H](Cc3ccccc31)c1ccccc12 [MK-801 (Dizocilpine)]	-0.1 ± 0.19 um	-0.65 ± 0.14 um
CC(C)(C)[C@]1(O)CC2OC(=O)CC23C(=O)OC2OC(=O)[C@H](O)C231 (stereo partly specified) [Bilobalide]	0.39 ± 0.36 um	0.27 ± 0.37 um
CCN1CCN(C(=O)Cc2ccc(Nc3ncc(F)c(Nc4ccc(C(=O)Nc5ccccc5Cl)cc4)n3)cc2)CC1 [Aurora A Inhibitor I]	-0.64 ± 0.15 um	0.24 ± 0.18 um
C=C[C@H]1CN2CC[C@H]1C[C@H]2[C@H](O)c1ccnc2ccccc12 [Cinchonidine]	0.53 ± 0.36 um	-0.01 ± 0.32 um

Pulled by compound from the entries so far (two):
SMILES	rod outer segment growth distance Dg [1]	rod outer segment shedding distance Ds [2]
CN1C(=O)CCS(=O)(=O)C1c1ccc(Cl)cc1 (stereo unspecified) [Chlormezanone]	-0.32 ± 0.26 um	-1.35 ± 0.32 um
CCCN1CCO[C@@H]2c3cc(O)ccc3OC[C@H]21	-0.22 ± 0.27 um	-0.78 ± 0.3 um

— the supplement of paper PMC6143611
